Laboratory results taken from PMC4640547.
Results are given in words; binding and its absence hold for the method and conditions named. In cells and extracts the contact can be indirect. Some results given as binding are weak or reduced against the parent protein; the word gives no strength. Tags and fused reporters may be left off the sequences shown.

The chains behind the UniProt entries cited, without tags or fusion partners. Where a name states a change or a piece, a line headed by the entry shows the natural chain unless it says otherwise. A line that says so, or that is headed by a name, gives the form on record, which may keep a tag or linker.
UniProt P11309: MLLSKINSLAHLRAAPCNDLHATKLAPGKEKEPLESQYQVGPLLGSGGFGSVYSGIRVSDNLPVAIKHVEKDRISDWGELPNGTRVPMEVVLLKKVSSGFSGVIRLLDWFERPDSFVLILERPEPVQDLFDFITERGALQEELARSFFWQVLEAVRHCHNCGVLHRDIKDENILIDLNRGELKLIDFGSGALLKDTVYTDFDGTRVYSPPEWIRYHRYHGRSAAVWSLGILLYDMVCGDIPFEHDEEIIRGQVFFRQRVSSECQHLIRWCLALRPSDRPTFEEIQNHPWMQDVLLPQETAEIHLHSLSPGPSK
APP-tagged PIM-1L (P11309-2, form named): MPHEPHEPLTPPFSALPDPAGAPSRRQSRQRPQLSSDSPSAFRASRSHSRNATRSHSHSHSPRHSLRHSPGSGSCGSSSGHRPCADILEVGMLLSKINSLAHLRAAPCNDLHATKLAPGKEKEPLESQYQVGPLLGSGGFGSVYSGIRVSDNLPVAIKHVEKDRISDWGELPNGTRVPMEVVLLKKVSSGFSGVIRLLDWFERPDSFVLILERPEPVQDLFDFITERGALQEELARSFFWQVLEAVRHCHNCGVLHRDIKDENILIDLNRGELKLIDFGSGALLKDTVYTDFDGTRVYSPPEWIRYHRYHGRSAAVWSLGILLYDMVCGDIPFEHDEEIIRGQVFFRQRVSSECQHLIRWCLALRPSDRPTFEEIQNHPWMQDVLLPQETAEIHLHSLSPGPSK

Biological target: T1, EGFP-tagged CD180 (human) (UniProt Q99467)
T1 sequence: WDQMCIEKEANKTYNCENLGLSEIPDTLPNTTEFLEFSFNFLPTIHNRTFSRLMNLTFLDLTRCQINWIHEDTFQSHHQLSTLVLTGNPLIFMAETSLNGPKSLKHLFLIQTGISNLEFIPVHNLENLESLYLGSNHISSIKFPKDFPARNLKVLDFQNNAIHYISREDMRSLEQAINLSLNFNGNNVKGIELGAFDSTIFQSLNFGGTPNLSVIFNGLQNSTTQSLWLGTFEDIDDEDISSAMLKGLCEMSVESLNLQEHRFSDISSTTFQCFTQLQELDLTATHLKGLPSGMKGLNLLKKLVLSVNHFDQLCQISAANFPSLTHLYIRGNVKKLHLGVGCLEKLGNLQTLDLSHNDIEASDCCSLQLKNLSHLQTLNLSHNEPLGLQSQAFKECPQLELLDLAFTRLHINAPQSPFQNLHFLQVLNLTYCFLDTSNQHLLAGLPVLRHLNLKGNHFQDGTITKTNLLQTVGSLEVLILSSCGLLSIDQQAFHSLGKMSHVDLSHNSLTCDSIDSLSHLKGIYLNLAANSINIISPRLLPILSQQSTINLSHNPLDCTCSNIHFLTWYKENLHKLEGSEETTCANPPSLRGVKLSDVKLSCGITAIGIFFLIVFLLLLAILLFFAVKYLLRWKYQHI
Assay: co-IP; HEK cells transiently co-transfected with APP-tagged PIM-1L and EGFP-tagged CD180; precleared lysates immunoprecipitated with anti-GFP antibody and Protein G Sepharose; blot with anti-PIM-1

binding	Substance
binds	APP-tagged PIM-1 short form (from UniProt P11309 1-313) (enzyme)
binds	APP-tagged PIM-1L (from UniProt P11309-2 1-404) (enzyme)
